PubChem BioAssay AID652272 – Drosophila RNAi Screening Center – 2013
The deposit covers about 21,000 reagents; this is an unselected part of those that have a named target and a result. Over the whole deposit, 503 (2.4%) got an active call. 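Raw plate light values, not normalised; calls rest on replicate z-scores that were not deposited; hits include reporter decreases as well as increases.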 Unmarked entries are inactive. Not stated in the record: the amount of reagent, the time to read-out.

Assay: 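Genes whose knock-down decreases or increases Hedgehog reporter output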 (primary screen)
Cells: Drosophila clone 8 (Cl8) cells
Reagents: long dsRNA against Drosophila genes
Read-out: 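Plate reader light from a firefly reporter under a ptc promoter fragment that responds to Hedgehog, with Renilla light as transfection reference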
Scale: firefly Hh reporter signal: higher = more ptc reporter light; Renilla reference signal: higher = more Renilla control light
Hit rule: 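Hit when the z-score averaged over two replicates is under -2 or over +3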
Calls: active = hit: reporter lowered or raised; inactive = not a hit

predicted target | amplicon | firefly Hh reporter signal, replicate 1 | firefly Hh reporter signal, replicate 2 | firefly Hh reporter signal, replicate 3 | Renilla reference signal, replicate 1 | Renilla reference signal, replicate 2
CG18508 | DRSC18155 | 99127 | 1.87e5 | – | 3845 | 7625
Clp (Clipper) | DRSC00746 | 86387 | 91619 | – | 2329 | 2149
XNP | DRSC15594 | 62214 | 1.07e5 | – | 1059 | 3101
St3 (Sulfotransferase 3) | DRSC04098 | 95352 | 54364 | – | 2198 | 5040
St3 (Sulfotransferase 3) | DRSC04505 | 1.28e5 | 57876 | – | 4683 | 2416
CG4679 | DRSC06880 | 78464 | 34139 | – | 2152 | 2771
Prx2 (Peroxiredoxin 2) | DRSC20256 | 63472 | 1.89e5 | – | 2544 | 8694
CG43349 | DRSC00039 | 8.50e5 | 3.55e5 | – | 40013 | 12406
mask (multiple ankyrin repeats single KH domain) | DRSC15370 | 4.70e5 | 61766 | – | 23073 | 2532
mask (multiple ankyrin repeats single KH domain) | DRSC16005 | 79344 | 43276 | – | 3616 | 2074
mask (multiple ankyrin repeats single KH domain) | DRSC16018 | 78048 (active) | 38412 | – | 4148 | 2509
Glo1 (Glyoxalase 1) | DRSC06657 | 81714 | 54016 | – | 1840 | 4602
roq (roquin) | DRSC10227 | 93690 | 44523 | – | 3287 | 1517
CG3558 | DRSC00615 | 89065 | 72551 | – | 4443 | 3513
CG31817 | DRSC01537 | 1.03e5 | 1.99e5 | – | 2733 | 9864
CG31817 | DRSC01538 | 5.14e5 | 1.86e5 | 91814 | 2772 | 5195
CG18011 | DRSC06697 | 60397 | 40973 | – | 3200 | 1747
CG18011 | DRSC06706 | 84083 | 66467 | – | 1457 | 5076
CG17010 | DRSC02559 | 1.24e5 | 85671 | – | 5701 | 3201
CG13023 | DRSC09454 | 2.16e5 | – | – | 4592 | –
CG13023 | DRSC09903 | 1.60e5 | – | – | 8753 | 4453
CG18368 | DRSC06731 | 87760 | 54484 | – | 2395 | 4643
CG33230 | DRSC08602 | 99872 | 68183 | – | 4720 | 2791
